This is one part of the list.
compound: CCCS(=O)(=O)Nc1ccc(F)c(C(=O)c2c[nH]c3ncc(-c4ccc(Cl)cc4)cc23)c1F [vemurafenib]; assay: log2 fold change, soluble protein after heating vs DMSO (PISA); higher = thermal stabilisation; K562 cells, 10 uM, 30 min; active = over 0.2 and 3.5 SD of the protein, either way, in both replicates (recomputed)
Method in brief: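 Thermal stability values are relative to control samples and come from duplicates. They are expressed as log2 fold changes. For measurement, K562 cells (2×10^6 cells/mL) received 10 μM compound for 30 min, and aliquots were heated for 3 min over 48°C-58°C, pooled, and extracted at 4°C in PBS with 0.5% NP-40. Soluble protein, the supernatant after 21,000xg for 90 min, was quantified by TMTpro 16plex LC-MS/MS with equalised channel sums.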

The chains behind the UniProt entries cited, without tags or fusion partners. Where a name states a change or a piece, a line headed by the entry shows the natural chain unless it says otherwise.
UniProt Q8TCT7: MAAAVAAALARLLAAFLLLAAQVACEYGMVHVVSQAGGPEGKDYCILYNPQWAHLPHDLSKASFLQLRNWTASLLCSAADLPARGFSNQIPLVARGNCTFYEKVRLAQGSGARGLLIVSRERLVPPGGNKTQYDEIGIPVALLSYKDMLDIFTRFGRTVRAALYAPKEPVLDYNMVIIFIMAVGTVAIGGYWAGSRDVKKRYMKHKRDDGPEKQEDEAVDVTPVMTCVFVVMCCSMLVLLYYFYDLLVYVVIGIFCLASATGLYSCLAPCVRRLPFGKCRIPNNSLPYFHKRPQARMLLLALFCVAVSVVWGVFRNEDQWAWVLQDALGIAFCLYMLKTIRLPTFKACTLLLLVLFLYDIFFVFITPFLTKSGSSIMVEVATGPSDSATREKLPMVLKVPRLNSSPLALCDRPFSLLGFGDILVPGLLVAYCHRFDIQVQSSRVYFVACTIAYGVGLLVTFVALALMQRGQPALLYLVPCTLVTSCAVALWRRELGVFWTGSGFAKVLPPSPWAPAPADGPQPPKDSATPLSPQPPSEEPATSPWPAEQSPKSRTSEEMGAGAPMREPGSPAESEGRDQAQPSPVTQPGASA
UniProt P84103: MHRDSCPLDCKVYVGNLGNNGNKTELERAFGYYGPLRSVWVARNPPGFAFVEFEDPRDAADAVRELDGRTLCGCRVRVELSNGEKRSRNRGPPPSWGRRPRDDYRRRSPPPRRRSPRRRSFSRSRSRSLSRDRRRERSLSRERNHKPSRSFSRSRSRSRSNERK
UniProt P10124: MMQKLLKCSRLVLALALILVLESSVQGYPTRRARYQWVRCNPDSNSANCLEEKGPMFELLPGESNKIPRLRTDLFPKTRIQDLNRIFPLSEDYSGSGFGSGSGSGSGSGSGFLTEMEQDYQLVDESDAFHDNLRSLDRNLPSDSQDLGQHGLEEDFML
UniProt Q05519: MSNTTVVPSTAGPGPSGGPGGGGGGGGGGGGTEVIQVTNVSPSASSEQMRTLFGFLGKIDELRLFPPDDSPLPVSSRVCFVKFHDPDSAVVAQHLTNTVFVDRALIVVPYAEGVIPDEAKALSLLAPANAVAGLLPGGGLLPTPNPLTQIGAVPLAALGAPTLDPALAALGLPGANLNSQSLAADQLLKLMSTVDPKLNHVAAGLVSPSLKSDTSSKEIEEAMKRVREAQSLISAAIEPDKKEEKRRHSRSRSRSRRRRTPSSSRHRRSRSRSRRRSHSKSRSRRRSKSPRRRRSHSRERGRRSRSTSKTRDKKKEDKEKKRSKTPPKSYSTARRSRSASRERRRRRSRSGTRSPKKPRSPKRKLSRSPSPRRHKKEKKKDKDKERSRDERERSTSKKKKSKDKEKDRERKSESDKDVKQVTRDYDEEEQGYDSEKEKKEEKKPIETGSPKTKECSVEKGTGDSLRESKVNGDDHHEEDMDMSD
UniProt O00506, whole entry, looked up: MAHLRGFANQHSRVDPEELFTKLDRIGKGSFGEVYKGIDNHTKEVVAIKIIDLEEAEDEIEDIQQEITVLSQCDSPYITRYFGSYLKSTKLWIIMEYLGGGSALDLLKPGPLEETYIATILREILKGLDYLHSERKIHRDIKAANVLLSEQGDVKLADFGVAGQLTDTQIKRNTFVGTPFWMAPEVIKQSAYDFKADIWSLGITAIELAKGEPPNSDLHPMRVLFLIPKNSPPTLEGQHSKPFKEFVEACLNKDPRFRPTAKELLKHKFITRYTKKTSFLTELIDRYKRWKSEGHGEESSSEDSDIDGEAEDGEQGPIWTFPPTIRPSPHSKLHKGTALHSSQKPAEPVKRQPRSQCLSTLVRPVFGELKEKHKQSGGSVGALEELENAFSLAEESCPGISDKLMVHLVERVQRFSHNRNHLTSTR
UniProt Q9UQ90: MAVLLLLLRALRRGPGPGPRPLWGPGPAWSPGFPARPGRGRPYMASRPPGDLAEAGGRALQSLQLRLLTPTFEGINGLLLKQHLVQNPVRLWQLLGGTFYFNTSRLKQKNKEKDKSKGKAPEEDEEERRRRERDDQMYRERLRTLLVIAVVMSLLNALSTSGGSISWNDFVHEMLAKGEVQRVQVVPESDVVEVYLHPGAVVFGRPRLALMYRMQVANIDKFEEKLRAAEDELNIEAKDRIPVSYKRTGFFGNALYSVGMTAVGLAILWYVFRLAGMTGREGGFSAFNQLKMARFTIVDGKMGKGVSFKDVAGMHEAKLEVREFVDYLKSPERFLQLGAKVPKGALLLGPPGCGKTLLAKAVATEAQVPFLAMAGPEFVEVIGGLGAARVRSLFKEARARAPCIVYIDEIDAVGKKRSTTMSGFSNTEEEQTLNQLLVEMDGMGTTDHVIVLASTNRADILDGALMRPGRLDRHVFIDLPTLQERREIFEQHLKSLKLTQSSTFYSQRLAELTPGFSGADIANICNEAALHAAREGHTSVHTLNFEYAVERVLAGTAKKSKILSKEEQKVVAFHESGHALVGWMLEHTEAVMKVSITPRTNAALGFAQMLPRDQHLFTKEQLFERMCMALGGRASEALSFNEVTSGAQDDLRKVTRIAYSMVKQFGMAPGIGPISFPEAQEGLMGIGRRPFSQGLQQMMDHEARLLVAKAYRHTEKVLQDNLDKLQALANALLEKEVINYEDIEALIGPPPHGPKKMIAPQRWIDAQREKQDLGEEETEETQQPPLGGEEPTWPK
UniProt Q8TCT8: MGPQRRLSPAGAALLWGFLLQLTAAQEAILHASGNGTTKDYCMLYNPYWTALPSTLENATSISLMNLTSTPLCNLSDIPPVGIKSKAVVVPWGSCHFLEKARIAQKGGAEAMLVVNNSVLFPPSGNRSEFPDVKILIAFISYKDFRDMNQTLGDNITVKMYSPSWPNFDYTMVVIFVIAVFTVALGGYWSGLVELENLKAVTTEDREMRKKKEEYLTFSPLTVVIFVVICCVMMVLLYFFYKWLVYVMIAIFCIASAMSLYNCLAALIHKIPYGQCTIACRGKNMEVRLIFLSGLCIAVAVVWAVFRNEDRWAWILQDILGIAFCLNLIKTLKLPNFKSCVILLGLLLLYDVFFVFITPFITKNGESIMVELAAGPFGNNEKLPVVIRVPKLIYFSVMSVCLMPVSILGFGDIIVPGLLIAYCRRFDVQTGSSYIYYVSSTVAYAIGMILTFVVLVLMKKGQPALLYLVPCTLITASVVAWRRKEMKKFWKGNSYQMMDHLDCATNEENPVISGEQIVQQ
UniProt P42224: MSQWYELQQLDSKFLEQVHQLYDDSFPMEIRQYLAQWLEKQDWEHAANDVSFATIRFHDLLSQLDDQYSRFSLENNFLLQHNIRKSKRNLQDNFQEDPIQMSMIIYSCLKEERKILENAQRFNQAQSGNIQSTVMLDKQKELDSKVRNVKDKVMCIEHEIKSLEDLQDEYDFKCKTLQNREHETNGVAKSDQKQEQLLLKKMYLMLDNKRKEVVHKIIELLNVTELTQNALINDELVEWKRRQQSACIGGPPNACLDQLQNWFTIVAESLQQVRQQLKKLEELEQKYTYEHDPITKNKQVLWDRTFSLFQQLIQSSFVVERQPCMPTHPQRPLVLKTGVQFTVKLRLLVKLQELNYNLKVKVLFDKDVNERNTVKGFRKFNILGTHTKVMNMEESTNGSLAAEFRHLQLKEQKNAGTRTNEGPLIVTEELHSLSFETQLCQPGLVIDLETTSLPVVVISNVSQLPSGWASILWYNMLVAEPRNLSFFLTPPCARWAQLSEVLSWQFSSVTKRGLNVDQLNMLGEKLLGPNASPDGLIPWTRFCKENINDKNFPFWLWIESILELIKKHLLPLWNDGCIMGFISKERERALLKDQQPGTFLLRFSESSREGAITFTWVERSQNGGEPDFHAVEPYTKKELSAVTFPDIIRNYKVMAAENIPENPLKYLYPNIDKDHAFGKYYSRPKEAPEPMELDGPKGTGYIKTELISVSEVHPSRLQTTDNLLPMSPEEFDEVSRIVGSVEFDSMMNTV
UniProt O43805: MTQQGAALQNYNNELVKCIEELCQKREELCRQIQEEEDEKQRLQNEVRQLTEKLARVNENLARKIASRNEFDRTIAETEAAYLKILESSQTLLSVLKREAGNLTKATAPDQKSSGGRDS
UniProt Q8NB90: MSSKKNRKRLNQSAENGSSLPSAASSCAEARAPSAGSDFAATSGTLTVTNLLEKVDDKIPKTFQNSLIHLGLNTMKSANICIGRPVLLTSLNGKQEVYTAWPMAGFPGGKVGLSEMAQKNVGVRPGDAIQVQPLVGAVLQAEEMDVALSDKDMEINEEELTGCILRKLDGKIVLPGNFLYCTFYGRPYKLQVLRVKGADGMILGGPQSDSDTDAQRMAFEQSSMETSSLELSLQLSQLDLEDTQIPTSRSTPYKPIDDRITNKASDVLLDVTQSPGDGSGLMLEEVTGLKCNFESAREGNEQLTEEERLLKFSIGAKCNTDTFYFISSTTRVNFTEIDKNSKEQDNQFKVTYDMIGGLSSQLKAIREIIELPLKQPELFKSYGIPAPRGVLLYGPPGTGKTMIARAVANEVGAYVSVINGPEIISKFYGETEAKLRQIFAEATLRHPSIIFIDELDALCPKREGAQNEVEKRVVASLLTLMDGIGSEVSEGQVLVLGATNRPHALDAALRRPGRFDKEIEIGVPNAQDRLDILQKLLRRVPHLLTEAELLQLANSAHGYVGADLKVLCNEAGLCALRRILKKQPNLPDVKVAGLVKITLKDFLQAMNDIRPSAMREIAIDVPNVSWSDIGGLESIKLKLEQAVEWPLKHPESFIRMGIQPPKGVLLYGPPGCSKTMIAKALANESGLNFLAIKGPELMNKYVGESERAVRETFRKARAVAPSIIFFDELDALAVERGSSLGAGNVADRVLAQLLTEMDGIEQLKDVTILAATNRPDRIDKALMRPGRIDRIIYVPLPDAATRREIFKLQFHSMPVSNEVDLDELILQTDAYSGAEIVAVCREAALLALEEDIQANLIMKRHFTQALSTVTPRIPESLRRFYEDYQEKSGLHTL
UniProt Q8WXA9: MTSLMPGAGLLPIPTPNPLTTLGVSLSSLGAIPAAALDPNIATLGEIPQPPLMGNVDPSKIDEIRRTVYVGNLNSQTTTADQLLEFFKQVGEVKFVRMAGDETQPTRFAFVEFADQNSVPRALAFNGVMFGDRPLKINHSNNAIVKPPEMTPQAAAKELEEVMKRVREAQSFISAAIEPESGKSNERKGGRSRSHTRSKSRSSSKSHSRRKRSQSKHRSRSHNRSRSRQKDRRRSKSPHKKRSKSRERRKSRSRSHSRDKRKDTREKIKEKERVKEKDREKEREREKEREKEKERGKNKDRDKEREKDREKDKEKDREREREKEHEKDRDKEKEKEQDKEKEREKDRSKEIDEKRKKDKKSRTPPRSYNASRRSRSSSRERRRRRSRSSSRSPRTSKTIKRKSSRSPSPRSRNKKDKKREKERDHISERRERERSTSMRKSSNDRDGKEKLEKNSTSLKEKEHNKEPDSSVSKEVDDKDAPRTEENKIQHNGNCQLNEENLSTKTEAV
UniProt O76094: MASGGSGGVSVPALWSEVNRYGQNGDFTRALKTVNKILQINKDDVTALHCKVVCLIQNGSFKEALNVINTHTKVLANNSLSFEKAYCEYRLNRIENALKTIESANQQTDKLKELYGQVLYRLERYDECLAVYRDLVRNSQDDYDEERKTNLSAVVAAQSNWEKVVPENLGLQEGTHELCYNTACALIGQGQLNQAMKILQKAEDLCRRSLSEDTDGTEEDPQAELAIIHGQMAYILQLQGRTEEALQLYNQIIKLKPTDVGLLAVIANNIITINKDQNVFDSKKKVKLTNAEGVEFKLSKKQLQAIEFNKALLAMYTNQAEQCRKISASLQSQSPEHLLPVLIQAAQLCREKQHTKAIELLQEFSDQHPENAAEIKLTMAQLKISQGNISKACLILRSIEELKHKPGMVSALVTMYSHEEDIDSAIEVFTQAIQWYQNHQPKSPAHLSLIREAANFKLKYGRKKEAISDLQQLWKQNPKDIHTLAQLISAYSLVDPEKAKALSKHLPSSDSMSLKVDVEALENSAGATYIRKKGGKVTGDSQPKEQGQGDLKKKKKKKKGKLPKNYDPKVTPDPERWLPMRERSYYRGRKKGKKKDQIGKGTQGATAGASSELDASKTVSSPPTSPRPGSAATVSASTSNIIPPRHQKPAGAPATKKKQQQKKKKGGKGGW
UniProt P61011: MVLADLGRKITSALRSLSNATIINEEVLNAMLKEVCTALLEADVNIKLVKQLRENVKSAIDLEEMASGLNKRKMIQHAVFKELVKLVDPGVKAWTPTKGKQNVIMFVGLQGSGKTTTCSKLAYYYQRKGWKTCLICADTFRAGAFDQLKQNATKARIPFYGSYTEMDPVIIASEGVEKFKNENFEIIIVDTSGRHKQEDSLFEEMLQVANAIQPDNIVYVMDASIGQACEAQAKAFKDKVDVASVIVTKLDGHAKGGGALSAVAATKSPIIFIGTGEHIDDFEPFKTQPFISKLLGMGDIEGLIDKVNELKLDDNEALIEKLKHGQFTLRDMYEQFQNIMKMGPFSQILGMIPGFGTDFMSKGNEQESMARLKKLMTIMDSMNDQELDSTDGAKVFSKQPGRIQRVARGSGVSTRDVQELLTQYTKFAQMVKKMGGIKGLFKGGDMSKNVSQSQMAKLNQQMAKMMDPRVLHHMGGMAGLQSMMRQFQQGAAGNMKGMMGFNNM

log2 fold change, inactive:
SPPL2B (UniProt Q8TCT7) -0.05
SRSF3 (UniProt P84103) -0.064
SRGAP2 (UniProt O75044) -0.037
SRGN (UniProt P10124) 0.096
SSR1 (UniProt P43307) -0.009
SPART (UniProt Q8N0X7) -0.046
SRSF11 (UniProt Q05519) 0.007
STIM1 (UniProt Q13586) -0.006
SRSF7 (UniProt Q16629) -0.043
STK25 (UniProt O00506) -0.021
SPHK1 isoform 2 (UniProt Q9NYA1) 0.018
SPG7 (UniProt Q9UQ90) 0.018
SPTA1 (UniProt P02549) 0.038
SPPL2A (UniProt Q8TCT8) 0.026
STAT1 (UniProt P42224) 0.115
SRP68 (UniProt Q9UHB9) 0.063
SSNA1 (UniProt O43805) -0.035
STAT5B (UniProt P51692) 0.046
STAU1 (UniProt O95793) -0.227
SPATA5 (UniProt Q8NB90) -0.028
SSRP1 (UniProt Q08945) 0.051
ST6GAL1 (UniProt P15907) -0.1
SSX2 (UniProt Q16385) 0.046
STAM (UniProt Q92783) 0.005
SQSTM1 (UniProt Q13501) 0.064
STK11 (UniProt Q15831) -0.094
STARD3 (UniProt Q14849) 0.052
SPINDOC (UniProt Q9BUA3) 0.113
ST3GAL2 (UniProt Q16842) -0.032
SPCS1, A0A5F9YFS9 0.038
SRPRA (UniProt P08240) 0.038
SPTBN2 (UniProt O15020) 0.112
SRSF2 (UniProt Q01130) -0.046
SRM (UniProt P19623) 0.012
SREK1 isoform 2 (UniProt Q8WXA9) 0.019
SRP72 (UniProt O76094) 0.037
SRP54 (UniProt P61011) 0.032
ST7 (UniProt Q9NRC1) 0.012
